Reference: PMC10455450
No constants are given. Whether binding was seen depends on the method and setting. Binding seen in cells or lysates may run through a third protein. These calls come from enrichment with a bait or labelling near it, and not all partners need be listed. For some assays here: A no says only that the protein was not detected with the bait.

Sequences of proteins named here, by UniProt entry; tags and fusion partners are left off.
UniProt Q9NZJ0: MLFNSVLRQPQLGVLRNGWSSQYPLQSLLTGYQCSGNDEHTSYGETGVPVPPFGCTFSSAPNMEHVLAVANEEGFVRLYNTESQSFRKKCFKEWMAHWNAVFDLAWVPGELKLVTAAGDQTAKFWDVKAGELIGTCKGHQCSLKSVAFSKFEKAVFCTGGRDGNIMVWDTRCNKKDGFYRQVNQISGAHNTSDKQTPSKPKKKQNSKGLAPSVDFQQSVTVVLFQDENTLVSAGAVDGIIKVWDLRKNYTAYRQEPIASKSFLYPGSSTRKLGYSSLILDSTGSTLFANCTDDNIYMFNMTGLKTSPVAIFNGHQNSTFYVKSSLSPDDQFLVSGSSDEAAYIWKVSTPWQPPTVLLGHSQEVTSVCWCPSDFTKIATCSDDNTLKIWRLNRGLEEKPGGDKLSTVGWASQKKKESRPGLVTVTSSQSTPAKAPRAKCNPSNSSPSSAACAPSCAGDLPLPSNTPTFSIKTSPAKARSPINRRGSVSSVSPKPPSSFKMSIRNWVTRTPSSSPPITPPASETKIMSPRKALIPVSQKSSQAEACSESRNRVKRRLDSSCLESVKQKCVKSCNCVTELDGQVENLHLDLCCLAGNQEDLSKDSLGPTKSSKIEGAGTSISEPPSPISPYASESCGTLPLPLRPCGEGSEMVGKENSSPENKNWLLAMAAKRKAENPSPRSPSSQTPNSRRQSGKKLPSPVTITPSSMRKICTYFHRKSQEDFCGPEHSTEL
UniProt Q96GC9: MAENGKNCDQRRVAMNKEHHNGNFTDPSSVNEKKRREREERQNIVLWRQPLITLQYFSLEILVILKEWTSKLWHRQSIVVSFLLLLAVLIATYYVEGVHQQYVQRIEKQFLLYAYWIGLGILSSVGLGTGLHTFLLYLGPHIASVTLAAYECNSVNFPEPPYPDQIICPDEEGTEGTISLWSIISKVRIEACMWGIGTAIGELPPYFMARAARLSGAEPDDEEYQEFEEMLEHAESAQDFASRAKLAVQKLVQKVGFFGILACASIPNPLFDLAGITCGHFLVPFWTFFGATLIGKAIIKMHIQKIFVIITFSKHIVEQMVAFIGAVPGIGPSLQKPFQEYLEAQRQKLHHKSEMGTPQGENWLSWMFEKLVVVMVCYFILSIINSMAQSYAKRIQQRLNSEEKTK

Assays:
[1] = target: FLAG–HA–Cdt2 (cell division cycle protein cdt2, from pcDNA3–2xFLAG–2xHA–Cdt2) (human) (UniProt Q9NZJ0); experiment: affinity purification with mass spectrometry; HEK293T transfected with Flag–HA-tagged Cdt2; CSK-soluble fraction; sequential immunoprecipitation with anti-FLAG (eluted with FLAG peptide) and anti-HA; mass spectrometry
[2] = target: FLAG–HA–Cdt2 (cell division cycle protein cdt2, from pcDNA3–2xFLAG–2xHA–Cdt2) (human) (UniProt Q9NZJ0); experiment: affinity purification with mass spectrometry; HEK293T transfected with Flag–HA-tagged Cdt2; chromatin cell extract; sequential immunoprecipitation with anti-FLAG (eluted with FLAG peptide) and anti-HA; mass spectrometry

- binding [1]: binds
Substance: Vacuole Membrane Protein 1 (VMP1), endogenous (from UniProt Q96GC9 1-406)
- binding [2]: no binding (only in the chromatin-linked fraction)
